Like-named read-outs stand apart in the source and are kept apart here. At least one peptide structure holds a part that was inferred or is arguable (an end, a ring closure or a residue). Where a SMILES comes first, the peptide text is derived from it.
Experiments:
[1] = system: MCF-7 cells; format: cell-based, human
Method: (§1) Human breast cancer cell line MCF-7 and mammary epithelial cell line MCF-10A were purchased from American Type Culture Collection (ATCC, Manassas, Va., USA). Breast cancer cell line KPL-3C (J. Kurebayashi, et al., Br. J. Cancer 74, 200-207 (1996)) was kindly provided by Dr. Junichi Kurebayashi (Kawasaki Medical School). All cell lines were monolayer cultured in an appropriate medium supplemented with 10% FBS. The cells were maintained at 37° C. under humidified atmosphere containing 5% CO2.
(§2) In each experiment, the respective cells were seeded in a 48-well plate (2×10^4 cells/mL), a 6-well plate (3×10^5 cells/mL), or a 10-cm dish (2×10^6 cells/10 mL). MCF-7 cells were seeded in MEM (Thermo Fisher Scientific) supplemented with 10% FBS (Nichirei Biosciences Inc., Tokyo, Japan), 1% Antibiotic/Antimycotic solution (Thermo Fisher Scientific, Waltham, Mass., USA), 0.1 mM NEAA (Thermo Fisher Scientific), 1 mM sodium pyruvate (Thermo Fisher Scientific), and 10 μg/mL insulin (Sigma, St. Louis, Mo., USA). KPL-3C cells were seeded in RPMI (Thermo Fisher Scientific) supplemented with 10% FBS and 1% Antibiotic/Antimycotic solution. MCF-10A cells were seeded in MEBM (Lonza) supplemented with a Single Quots kit (BPE, hydrocortisone, hEGF, insulin, gentamycin/amphoterin-B) (Lonza, Walkersville, Md., USA) and 100 ng/mL cholera toxin. For 17β-estradiol (E2) (Sigma) stimulation, the media for MCF-7 and KPL-3C were changed to phenol red-free DMEM/F12 (Thermo Fisher Scientific) supplemented with 10% FBS, 1% Antibiotic/Antimycotic solution, 0.1 mM NEAA, 1 mM sodium pyruvate, and 10 μg/mL insulin on the day after seeding. Twenty-four hours later, the cells were treated with 10 nM E2 and a peptide (for example, 11R-ERAP or a stapled ERAP), or with 10 nM E2 alone.
When carrying out treatment with tamoxifen (Sigma) or fulvestrant (LKT laboratories, St. Paul, Minn., USA), cells were treated with 10 nM tamoxifen or 2 μM fulvestrant simultaneously with the above-mentioned treatment with E2 and a peptide or with E2 alone.
Cell growth assays on MCF-7, KPL-3C, and MCF-10A were carried out as described previously using a Cell Counting Kit-8 (CCK-8) (Dojindo, Kumamoto, Japan) (T. Yoshimaru, et al., Nat. Commun. 4, 2443 (2013)). The data are shown by mean±SE of three independent experiments.

Amino acid sequences for entries named in this document (tags omitted). Residues count along the entry.
UniProt Q99623, whole entry: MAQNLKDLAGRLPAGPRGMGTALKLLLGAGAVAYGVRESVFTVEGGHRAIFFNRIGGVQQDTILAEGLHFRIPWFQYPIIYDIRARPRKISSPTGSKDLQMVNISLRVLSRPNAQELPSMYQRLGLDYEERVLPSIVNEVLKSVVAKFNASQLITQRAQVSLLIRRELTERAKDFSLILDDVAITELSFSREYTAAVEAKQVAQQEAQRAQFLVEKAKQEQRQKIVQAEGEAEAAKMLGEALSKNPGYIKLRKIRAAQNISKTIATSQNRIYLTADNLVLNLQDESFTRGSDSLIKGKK
UniProt Q99623, 2-299 limits assumed: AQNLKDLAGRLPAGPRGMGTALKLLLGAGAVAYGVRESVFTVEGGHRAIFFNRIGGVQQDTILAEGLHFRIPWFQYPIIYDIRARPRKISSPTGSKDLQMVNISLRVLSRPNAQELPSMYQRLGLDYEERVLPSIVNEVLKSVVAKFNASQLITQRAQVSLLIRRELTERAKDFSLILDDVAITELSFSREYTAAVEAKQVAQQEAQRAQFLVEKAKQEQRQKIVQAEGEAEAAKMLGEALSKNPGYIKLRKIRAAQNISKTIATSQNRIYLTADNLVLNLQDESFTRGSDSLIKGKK

[2] = system: tamoxifen-resistant (TAM-R) MCF-7 cells; assay: MTT assay, tamoxifen-resistant MCF-7 cells; format: cell-based, human; conditions: in the presence of E2 and tamoxifen
[3] = system: KPL-3C orthotopic breast cancer xenografts; assay: In vivo tumor growth inhibition, KPL-3C orthotopic xenograft, intraperitoneal; design: species or system BALB/c nude mice
Method: KPL-3C cell suspensions (1×10^7 cells/mouse) were mixed with an equal volume of Matrigel (BD) and injected (200 μL in total) into the mammary fat pads of 6-week-old female BALB/c nude mice (Charles River Laboratories, Tokyo, Japan). The mice were housed in a pathogen-free isolation facility with a twelve-hour light/dark cycle and were fed solid rodent chow and water ad libitum. The tumors developed over several days and reached sizes of approximately 100 mm^3 [calculated as ½×(width×length^2)]. The mice were randomized into the following eleven treatment groups (five heads per group):
E2 was administered via application of a solution to the neck skin, and regarding the other treatments, administration was performed via intraperitoneal injection unless other administration methods are stated. The tumor volume was measured with calipers for 28 days, and then the mice were subjected to scheduled sacrifice to remove tumors. All the experiments were performed in accordance with the guidelines of the animal facility at Tokushima University.

[4] = biological target: T1, PHB2 (Homo sapiens, UniProt Q99623); assay: Intracellular distribution of PHB2 in removed tumors (fractionation, co-immunoprecipitation, immunohistochemistry); format: in vivo, BALB/c nude mice; conditions: 1.4 mg/kg, in the presence of E2
T1 construct: from tissue; host or cells: tumours removed from KPL-3C orthotopic xenograft mice

[5] = system: mTOR and S6K phosphorylation; assay: Immunoblot of mTOR and S6K phosphorylation in tamoxifen-resistant MCF7 cells; format: cell-based, human; conditions: for mTOR and S6K phosphorylation: 24-hour treatment, in the presence of TAM; for mTOR and S6K phosphorylation, inhibitory effect: 96-hour reaction, in the presence of TAM and E2
[6] = system: MCF-10A cells; assay: Cell growth (MTT) assay, MCF-10A cells; format: cell-based, human
Method: as §1
as §2, with “For 17β-estradiol (E2) (Sigma) stimulation, the media for MCF-7 and KPL-3C were changed to phenol red-free DMEM/F12 (Thermo Fisher Scientific) supplemented with 10% FBS, 1% Antibiotic/Antimycotic solution, 0.1 mM NEAA, 1 mM sodium pyruvate, and 10 μg/mL insulin on the day after seeding. Twenty-four hours later, the cells were treated with 10 nM E2 and a peptide (for example, 11R-ERAP or a stapled ERAP), or with 10 nM E2 alone.” left out

[7] = CD spectroscopy, helical content; format: physicochemical; conditions: calculated from the value at 222 nm
[8] = system: ERα target genes TFF1 and CCND1; assay: Real-time RT-PCR of ERα target genes in MCF-7 cells; format: cell-based, human; conditions: MCF-7, up to 96 hours after treatment
[9] = system: ERα target genes TFF1 and CCND1; assay: ERα target gene expression in removed tumors; format: in vivo, BALB/c nude mice
Method: The expression of the ERα target genes (TFF1 and CCND1) was evaluated by real-time RT-PCR as described previously (T. Yoshimaru, et al., Nat. Commun. 4, 2443 (2013)). Each sample was normalized to the β2-MG mRNA content, and the results were expressed as multiples (-fold) of the expression level in untreated cells, with that level being defined as 1.0. The data represent the mean±SD of three independent experiments. The primers used for RT-PCR were as follows: […]

[10] = system: Akt and MAPK phosphorylation; assay: Immunoblot of Akt and MAPK phosphorylation in removed tumors; format: in vivo, BALB/c nude mice
[11] = system: 22Rv1 cells; assay: Cell growth assay (trypan blue), 22Rv1 cells; format: cell-based, human; conditions: 20 μM, 50 μM; E2-independent
[12] = system: KPL-3C orthotopic breast cancer xenografts; assay: In vivo antitumor effect, KPL-3C orthotopic xenograft, tail vein injection; design: species or system nude mice
[13] = biological target: T2, BIG3-PHB2 interaction (Homo sapiens, UniProt Q99623); assay: Co-immunoprecipitation of BIG3-PHB2 in tumors removed from grafted mice; format: in vivo, nude mice; design: from tissue; host or cells: tumours removed from KPL-3C orthotopic xenograft mice; conditions: 10 mg/kg every day and every seven days, 35 days
[14] = biological target: T2, BIG3-PHB2 interaction; assay: Co-immunoprecipitation with anti-BIG3 antibody in MCF-7 cells; format: cell-based; design: complex formation between the endogenous BIG3 and PHB2 in ERα-positive breast cancer cell line MCF-7; endogenous in cells; host or cells: MCF-7
Method: Immunoblot analyses were performed as described previously (T. Yoshimaru, et al., Nat. Commun. 4, 2443 (2013)). After performing SDS-PAGE, the membranes blotted with proteins were blocked with 4% BlockAce solution (Dainippon Pharmaceutical, Osaka, Japan) for three hours and then incubated with antibodies against the following proteins: BIG3 (1:1,000) (T. Yoshimaru, et al., Nat. Commun. 4, 2443 (2013)); PHB2 (1:1,000) (Abeam, Cambridge, UK); Akt, phosphorylated Akt (S473) (587F11, 1:1,000); p44/42 MAPK, phosphorylated p44/42 MAPK (T202/Y204) (1:1,000); α/β-tubulin (1:1,000) (Cell Signaling Technology, Danvers, Mass., USA); and LMNB1 (1:100) (Sigma). After incubation with an HRP-labeled secondary antibody (anti-mouse IgG-HRP, 1:5,000; anti-rat IgG-HRP; 1:5,000; or anti-rabbit IgG-HRP, 1:1,000) (Santa Cruz Biotechnology, Dallas, Tex., USA) for one hour, the blots were developed with an Enhanced Chemiluminescence (ECL) system (GE Healthcare, Buckinghamshire, UK) and scanned using an Image Reader LAS-3000 mini (Fujifilm, Tokyo, Japan). All the experiments were performed at least in triplicate.
Immunoprecipitation analysis was performed as described previously (T. Yoshimaru, et al., Nat. Commun. 4, 2443 (2013)). Cell lysates were pre-cleared with normal IgG and rec-Protein G Sepharose 4B (Thermo Fisher Scientific) at 4° C. for three hours. […]

[15] = biological target: T2, BIG3-PHB2 interaction; assay: Co-immunoprecipitation with anti-BIG3 antibody in 22Rv1 cells; format: cell-based; design: complex formation between the endogenous BIG3 and PHB2 in ERα-positive breast cancer cell line MCF-7; endogenous in cells; host or cells: MCF-7; conditions: 10, 20, 50 μM
[16] = daily i.p., 1.4 mg/kg and 14 mg/kg, 28 days

## CSCC[C@H](NC(=O)[C@H](CCC(N)=O)NC(=O)CNC(=O)CNC(=O)CNC(=O)[C@H](CCCNC(=N)N)NC(=O)[C@H](CCCNC(=N)N)NC(=O)[C@H](CCCNC(=N)N)NC(=O)[C@H](CCCNC(=N)N)NC(=O)[C@H](CCCNC(=N)N)NC(=O)[C@H](CCCNC(=N)N)NC(=O)[C@H](CCCNC(=N)N)NC(=O)[C@H](CCCNC(=N)N)NC(=O)[C@H](CCCNC(=N)N)NC(=O)[C@H](CCCNC(=N)N)NC(=O)[C@@H](N)CCCNC(=N)N)C(=O)N[C@@H](CC(C)C)C(=O)N[C@@H](CO)C(=O)N[C@@H](CC(=O)O)C(=O)N[C@@H](CC(C)C)C(=O)N[C@H](C(=O)N[C@@H](CC(C)C)C(=O)N[C@@H](CCC(N)=O)C(=O)N[C@@H](CC(C)C)C(=O)N[C@@H](CCCNC(=N)N)C(=O)N[C@@H](CCC(N)=O)C(=O)N[C@@H](CCCNC(=N)N)C(=O)O)[C@@H](C)O [11R-ERAP, reference compound] (H-RRRRRRRRRRRGGGQMLSDLTLQLRQR-OH; N-terminus and C-terminus assumed)
[1]; 24-hour reaction
  E2-dependent cell growth: almost completely suppressed
  E2-dependent cell growth, combined use with tamoxifen, fulvestrant or everolimus: synergistic suppressing effects
[2]
  duration of inhibition of E2-dependent cell growth: 24 h
[3]; [16]
  E2-dependent tumor growth: significant inhibition
[4]
  PHB2 distribution in tumors: large increase in the amount of nuclear PHB2
[5]
  mTOR and S6K phosphorylation: almost completely inhibited
  mTOR and S6K phosphorylation, inhibitory effect: significantly attenuated

## CSCC[C@H](NC(=O)[C@H](CCC(N)=O)NC(C)=O)C(=O)N[C@H]1CCC(=O)NCCCCNC(=O)CC[C@@H](C(=O)N[C@@H](CC(C)C)C(=O)N[C@@H](CCC(N)=O)C(=O)N[C@@H](CC(C)C)C(=O)N[C@@H](CCCNC(=N)N)C(=O)N[C@@H](CCC(N)=O)C(=O)N[C@@H](CCCNC(=N)N)C(N)=O)NC(=O)[C@H](CC(C)C)NC(=O)[C@H](CC(=O)O)NC(=O)[C@H](CO)NC1=O [stapled ERAP No. 12]
[1]
  effect on E2-dependent MCF-7 cell growth: significant long-term inhibition
[1]; 0.5 μM peptide + 10 nM tamoxifen
  E2-dependent cell growth, combination with tamoxifen: Remarkable synergistic inhibitory effects
[1]; 0.5 μM peptide + 2 μM fulvestrant, vs single treatment
  E2-dependent cell growth, combination with fulvestrant: significantly suppressed
[1]; 1 μM, E2-dependent growth of MCF-7
  duration of significant cell growth inhibitory effects: four
[1]; 24-hour reaction
  E2-dependent cell growth: almost completely suppressed
  E2-dependent cell growth, combined use with tamoxifen, fulvestrant or everolimus: synergistic suppressing effects
[1]; 96-hour reaction
  E2-dependent cell growth: sustained almost complete suppressive effects
  E2-dependent cell growth, combined use with existing inhibitors: synergistic suppressive effects
[6]; 10 μM, 20 μM or 50 μM
  effect on MCF-10A cell growth: did not affect the growth
[6]; normal mammary epithelial cells, ERα-negative and BIG3-negative
  effect on MCF-10A cell growth: did not inhibit
[7]
  helical content: 42.5%
[8]
  E2-dependent expression of TFF1 and CCND1: maintained at a high level
[2]
  duration of inhibition of E2-dependent cell growth: 96 h
[3]; 0.02 mg/kg i.p. every seven days
  E2-dependent tumor growth completely inhibited up to day: 18 days
[3]; 0.1 mg/kg i.p. every seven days
  E2-dependent tumor growth completely inhibited up to day: 21 days
[3]; 1 mg/kg i.p. every seven days
  E2-dependent tumor growth completely inhibited up to day: 28 days
[3]; [16]
  E2-dependent tumor growth: significant inhibition
[3]; i.p. every four days, 1.4 and 14 mg/kg
  E2-dependent tumor growth: sustained significant inhibitory effects
[4]
  PHB2 distribution in tumors: large increase in the amount of nuclear PHB2
[9]; 1.4 mg/kg every day or every four days
  E2-dependent expression of TFF1 and CCND1 in tumors: significantly suppressed
[9]; 0.02, 0.1 or 1 mg/kg i.p. every four days or every seven days
  E2-dependent expression of TFF1 and CCND1 in tumors: significantly suppressed
[10]; 1.4 mg/kg i.p. every day or every four days
  Akt phosphorylation and MAPK phosphorylation in tumors: remarkable suppression
[10]; 10 mg/kg tail vein every day and every seven days
  Akt phosphorylation and MAPK phosphorylation in tumors: remarkable suppression
[11]
  22Rv1 cell growth: significantly suppressed
[5]
  mTOR and S6K phosphorylation: almost completely inhibited
  mTOR and S6K phosphorylation, inhibitory effect: sustained almost complete inhibitory effects
[12]; tail vein 10 mg/kg
  antitumor effect: almost complete antitumor effects
[12]; tail vein 0.1, 1, 10 mg/kg every day and every seven days, 35 days
  E2-dependent tumor growth: significantly suppressed
[13]
  BIG3-PHB2 interaction in tumors: almost completely inhibits the BIG3-PHB2 interaction
[14]
  inhibition of endogenous BIG3-PHB2 complex formation: significant long-term inhibition
[15]
  endogenous BIG3-PHB2 complex formation in 22Rv1 cells: dose-dependently inhibits complex formation

Source: patent publication US10669310B2, “Peptide for cancer treatment and pharmaceutical composition containing same” (TOKUSHIMA UNIVERSITY, priority 2016, dated 2020)
